In the supplement of paper PMC10849652:
Some of the results follow.

Protein sequences, listed by entry. Tags and fused reporters are not part of them. Lines headed by an entry give the natural chain unless they say otherwise; changes in a name come on top.
UniProt P49796: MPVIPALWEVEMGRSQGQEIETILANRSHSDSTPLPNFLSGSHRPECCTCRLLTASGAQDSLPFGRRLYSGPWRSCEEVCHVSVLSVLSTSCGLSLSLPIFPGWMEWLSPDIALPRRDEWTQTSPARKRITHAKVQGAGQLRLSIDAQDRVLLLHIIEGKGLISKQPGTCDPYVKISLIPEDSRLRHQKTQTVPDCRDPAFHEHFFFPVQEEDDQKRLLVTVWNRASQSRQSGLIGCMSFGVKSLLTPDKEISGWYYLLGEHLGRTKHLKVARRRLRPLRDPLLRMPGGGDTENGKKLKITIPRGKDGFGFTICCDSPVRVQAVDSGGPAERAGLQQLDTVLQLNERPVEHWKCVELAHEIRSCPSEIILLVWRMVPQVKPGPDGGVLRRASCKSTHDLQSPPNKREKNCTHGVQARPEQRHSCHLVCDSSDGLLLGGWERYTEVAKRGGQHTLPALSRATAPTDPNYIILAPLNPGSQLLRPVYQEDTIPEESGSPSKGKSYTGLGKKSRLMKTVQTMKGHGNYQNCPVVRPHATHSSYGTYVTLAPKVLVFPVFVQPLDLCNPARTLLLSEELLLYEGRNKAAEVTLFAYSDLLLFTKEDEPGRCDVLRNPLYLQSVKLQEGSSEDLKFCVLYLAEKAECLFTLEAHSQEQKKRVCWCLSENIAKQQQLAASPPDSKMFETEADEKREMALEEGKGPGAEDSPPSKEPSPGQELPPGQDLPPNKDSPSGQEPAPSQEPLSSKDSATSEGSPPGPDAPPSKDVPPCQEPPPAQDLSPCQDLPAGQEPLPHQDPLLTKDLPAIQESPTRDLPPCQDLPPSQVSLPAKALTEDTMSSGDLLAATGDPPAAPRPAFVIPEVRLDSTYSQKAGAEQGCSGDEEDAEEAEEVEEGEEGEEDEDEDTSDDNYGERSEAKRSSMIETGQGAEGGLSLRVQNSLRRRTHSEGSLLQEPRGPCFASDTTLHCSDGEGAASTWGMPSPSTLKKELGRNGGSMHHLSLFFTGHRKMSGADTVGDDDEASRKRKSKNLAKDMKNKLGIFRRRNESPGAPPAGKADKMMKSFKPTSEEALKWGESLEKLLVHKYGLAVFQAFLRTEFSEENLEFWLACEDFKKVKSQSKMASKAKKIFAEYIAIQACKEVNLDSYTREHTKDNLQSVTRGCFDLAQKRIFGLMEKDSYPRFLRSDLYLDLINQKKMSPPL
UniProt Q08999: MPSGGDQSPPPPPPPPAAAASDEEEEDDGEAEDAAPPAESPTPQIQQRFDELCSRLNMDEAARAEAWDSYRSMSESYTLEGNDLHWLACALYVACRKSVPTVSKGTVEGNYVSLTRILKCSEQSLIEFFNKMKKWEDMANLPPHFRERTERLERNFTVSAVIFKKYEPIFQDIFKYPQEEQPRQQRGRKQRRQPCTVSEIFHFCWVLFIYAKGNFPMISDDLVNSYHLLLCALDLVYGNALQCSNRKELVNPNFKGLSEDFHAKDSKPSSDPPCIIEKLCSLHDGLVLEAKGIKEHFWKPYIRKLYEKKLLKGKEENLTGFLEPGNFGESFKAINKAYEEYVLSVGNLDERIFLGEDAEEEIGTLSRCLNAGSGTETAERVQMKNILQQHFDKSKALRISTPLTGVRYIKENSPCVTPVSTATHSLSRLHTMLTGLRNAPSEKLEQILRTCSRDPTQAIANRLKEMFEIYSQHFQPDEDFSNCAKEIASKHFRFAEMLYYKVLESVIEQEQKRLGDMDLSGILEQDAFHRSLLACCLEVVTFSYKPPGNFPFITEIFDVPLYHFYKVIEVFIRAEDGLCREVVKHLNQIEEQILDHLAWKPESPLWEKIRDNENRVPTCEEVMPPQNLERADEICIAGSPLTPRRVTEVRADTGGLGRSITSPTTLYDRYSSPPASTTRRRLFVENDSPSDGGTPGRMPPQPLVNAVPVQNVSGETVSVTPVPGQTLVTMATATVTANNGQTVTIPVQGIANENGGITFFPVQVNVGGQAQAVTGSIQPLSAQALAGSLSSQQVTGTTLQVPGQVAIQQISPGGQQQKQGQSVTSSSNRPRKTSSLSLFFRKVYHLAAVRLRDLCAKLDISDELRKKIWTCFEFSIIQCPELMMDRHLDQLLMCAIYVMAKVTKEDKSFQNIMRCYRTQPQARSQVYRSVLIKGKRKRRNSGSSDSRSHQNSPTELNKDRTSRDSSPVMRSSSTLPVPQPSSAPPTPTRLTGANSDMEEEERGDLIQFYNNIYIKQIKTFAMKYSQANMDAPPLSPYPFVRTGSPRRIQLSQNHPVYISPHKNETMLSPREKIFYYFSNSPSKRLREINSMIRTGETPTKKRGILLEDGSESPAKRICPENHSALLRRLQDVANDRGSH
UniProt Q8TEB9: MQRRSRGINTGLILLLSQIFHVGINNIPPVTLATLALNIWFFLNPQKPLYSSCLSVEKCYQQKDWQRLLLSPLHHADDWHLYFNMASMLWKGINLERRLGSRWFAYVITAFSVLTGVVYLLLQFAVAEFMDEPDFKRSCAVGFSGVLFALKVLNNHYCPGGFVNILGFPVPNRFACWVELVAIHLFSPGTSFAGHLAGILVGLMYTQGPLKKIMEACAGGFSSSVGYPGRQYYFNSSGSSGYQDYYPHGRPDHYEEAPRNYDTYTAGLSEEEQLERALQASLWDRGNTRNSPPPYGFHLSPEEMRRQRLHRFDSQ
UniProt P48378: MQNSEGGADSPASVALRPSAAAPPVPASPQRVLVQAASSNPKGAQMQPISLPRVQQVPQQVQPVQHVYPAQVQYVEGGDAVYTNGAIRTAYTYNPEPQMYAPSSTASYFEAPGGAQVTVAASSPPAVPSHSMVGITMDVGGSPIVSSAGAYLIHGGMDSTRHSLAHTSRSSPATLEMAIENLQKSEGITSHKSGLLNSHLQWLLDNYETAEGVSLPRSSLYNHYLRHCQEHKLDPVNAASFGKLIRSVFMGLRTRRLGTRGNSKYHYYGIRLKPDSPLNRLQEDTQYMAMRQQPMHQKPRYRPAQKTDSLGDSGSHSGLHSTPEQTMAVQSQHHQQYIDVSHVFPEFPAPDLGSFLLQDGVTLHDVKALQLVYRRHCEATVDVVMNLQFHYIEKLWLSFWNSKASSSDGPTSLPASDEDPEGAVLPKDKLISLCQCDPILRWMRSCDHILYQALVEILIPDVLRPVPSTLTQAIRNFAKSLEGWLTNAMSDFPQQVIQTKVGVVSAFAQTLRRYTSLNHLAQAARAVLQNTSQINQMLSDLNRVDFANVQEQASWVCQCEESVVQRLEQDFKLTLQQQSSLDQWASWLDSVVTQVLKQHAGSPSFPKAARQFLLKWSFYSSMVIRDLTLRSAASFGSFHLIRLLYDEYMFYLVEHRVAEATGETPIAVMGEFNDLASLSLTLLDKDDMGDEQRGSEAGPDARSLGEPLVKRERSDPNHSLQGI
UniProt O43566: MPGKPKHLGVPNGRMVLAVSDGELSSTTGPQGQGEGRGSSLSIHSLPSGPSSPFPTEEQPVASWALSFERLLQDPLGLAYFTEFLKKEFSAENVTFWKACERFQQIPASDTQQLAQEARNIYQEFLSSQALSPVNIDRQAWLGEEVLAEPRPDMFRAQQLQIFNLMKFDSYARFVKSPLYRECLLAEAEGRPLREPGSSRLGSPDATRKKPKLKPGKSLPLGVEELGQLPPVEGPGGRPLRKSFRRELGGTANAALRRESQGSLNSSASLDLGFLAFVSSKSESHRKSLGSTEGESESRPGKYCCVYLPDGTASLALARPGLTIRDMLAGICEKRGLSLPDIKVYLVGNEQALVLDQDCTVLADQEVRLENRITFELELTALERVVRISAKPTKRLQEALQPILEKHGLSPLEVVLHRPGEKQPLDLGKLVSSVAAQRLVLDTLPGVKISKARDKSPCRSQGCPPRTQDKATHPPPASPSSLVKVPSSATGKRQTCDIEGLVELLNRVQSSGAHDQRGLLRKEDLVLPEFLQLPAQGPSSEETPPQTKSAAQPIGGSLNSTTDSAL
UniProt Q96IC2: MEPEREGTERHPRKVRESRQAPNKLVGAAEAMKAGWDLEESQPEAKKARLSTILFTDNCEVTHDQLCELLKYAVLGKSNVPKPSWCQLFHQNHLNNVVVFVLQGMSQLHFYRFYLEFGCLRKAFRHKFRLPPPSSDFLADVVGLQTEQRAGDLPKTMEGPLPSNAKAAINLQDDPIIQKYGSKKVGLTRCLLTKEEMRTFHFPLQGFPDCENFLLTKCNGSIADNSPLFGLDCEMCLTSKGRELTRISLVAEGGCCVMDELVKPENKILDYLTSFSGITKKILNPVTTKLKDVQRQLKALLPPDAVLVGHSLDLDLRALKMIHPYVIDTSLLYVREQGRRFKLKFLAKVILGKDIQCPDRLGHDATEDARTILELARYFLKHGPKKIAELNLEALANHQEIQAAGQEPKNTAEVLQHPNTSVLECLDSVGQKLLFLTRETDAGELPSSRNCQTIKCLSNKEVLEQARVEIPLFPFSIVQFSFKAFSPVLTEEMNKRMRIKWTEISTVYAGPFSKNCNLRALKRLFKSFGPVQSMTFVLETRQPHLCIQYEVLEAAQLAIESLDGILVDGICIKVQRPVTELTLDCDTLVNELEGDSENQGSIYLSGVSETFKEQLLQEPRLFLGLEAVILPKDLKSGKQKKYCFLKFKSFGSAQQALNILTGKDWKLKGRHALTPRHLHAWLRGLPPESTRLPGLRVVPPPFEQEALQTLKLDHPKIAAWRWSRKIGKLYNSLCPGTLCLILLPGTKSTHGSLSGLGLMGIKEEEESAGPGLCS
UniProt Q02833: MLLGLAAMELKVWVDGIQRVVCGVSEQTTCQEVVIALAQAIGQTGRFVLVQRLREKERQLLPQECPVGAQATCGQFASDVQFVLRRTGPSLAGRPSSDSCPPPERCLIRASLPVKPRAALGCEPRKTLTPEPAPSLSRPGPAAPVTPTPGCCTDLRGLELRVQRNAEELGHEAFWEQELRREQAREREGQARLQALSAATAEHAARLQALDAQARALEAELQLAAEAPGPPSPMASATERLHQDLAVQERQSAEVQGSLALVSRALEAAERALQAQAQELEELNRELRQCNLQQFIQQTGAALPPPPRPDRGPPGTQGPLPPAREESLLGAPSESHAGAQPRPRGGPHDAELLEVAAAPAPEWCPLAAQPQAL
UniProt P48380: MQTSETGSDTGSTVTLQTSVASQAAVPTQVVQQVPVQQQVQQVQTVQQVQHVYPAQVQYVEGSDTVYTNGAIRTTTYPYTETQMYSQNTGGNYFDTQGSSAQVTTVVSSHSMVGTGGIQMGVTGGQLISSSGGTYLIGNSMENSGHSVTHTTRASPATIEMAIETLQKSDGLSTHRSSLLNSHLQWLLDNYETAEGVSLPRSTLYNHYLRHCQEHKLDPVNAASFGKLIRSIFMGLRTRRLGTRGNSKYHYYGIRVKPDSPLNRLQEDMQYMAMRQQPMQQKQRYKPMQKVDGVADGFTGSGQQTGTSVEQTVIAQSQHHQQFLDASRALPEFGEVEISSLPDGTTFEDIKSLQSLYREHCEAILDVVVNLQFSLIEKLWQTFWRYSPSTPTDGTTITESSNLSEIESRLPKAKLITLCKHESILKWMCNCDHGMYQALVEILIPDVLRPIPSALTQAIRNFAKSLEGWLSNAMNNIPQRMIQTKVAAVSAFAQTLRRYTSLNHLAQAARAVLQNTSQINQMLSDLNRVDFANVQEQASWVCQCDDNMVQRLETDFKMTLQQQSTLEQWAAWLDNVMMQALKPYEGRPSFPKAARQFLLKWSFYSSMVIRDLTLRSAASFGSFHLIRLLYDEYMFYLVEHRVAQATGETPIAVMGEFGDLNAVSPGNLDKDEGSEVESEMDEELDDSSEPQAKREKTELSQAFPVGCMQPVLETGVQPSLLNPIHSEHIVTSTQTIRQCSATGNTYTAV
UniProt Q9H0Z9: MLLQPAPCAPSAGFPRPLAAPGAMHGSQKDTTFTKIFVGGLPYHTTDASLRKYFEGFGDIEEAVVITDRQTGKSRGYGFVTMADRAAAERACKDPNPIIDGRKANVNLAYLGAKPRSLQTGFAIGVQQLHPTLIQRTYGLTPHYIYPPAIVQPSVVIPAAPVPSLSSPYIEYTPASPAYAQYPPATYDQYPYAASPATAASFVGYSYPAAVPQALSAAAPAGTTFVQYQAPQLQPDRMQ
UniProt Q8TC12: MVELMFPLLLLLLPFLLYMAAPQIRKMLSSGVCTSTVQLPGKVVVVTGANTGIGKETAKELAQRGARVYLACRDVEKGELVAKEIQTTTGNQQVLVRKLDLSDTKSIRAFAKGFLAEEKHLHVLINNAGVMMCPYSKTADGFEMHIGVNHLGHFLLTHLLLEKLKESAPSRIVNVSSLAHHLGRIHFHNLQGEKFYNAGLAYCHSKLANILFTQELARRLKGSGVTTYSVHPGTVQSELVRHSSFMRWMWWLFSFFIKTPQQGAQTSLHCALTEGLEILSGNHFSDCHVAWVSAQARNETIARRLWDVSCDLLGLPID
UniProt P82980: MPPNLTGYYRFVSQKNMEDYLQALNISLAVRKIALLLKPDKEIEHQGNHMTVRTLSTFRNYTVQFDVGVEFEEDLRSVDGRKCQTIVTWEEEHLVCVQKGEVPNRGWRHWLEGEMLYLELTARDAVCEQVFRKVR

compound: C1=CC=C(C=C1)[C@H](COC2=CC3=C(C=C2)NC(=O)N3)NC(=O)C4=CC=CN(C4=O)CC5=CC(=C(C=C5)F)F; assay: log2 fold change, soluble protein after heating vs DMSO (PISA); higher = thermal stabilisation; K562 lysate, 10 uM; active = over 0.2 and 3.5 SD of the protein, either way, in both replicates (recomputed)
Method in brief: (§1)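 Following dounce homogenisation of K562 pellets in PBS pH 7.4 with 1 mM MgCl2, crude extract at 1 mg/mL protein was incubated for 30 min with 10 μM compound. Aliquots were then heated for 3 min over 48°C-58°C and pooled, NP-40 was added to 0.5% at 4°C, and soluble protein was recovered as the supernatant at 21,000xg for 90 min. Channel-sum-equalised TMTpro 16plex LC-MS/MS quantified this protein. Each value, from duplicates, is a log-two fold change in thermal stability relative to solvent controls.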

| Target | log2 fold change |
| --- | --- |
| RGS3 (UniProt P49796) | inactive: 0.001 |
| RBL2 (UniProt Q08999) | inactive: 0.052 |
| RHBDD1 (UniProt Q8TEB9) | inactive: -0.032 |
| REEP3 (UniProt Q6NUK4) | inactive: -0.003 |
| RFX2 (UniProt P48378) | inactive: 0.052 |
| RGS14 (UniProt O43566) | inactive: -0.006 |
| REXO5 (UniProt Q96IC2) | inactive: -0.01 |
| RASSF7 (UniProt Q02833) | inactive: -0.034 |
| RETREG2 (UniProt Q8NC44) | inactive: -0.095 |
| RBP4 (UniProt P02753) | inactive: 0.105 |
| RAPGEF6 isoform 4 (UniProt Q8TEU7) | inactive: 0.008 |
| RFX3 (UniProt P48380) | inactive: -0.054 |
| RBFOX2 isoform 8 (UniProt O43251) | inactive: 0.027 |
| REXO1 (UniProt Q8N1G1) | inactive: -0.015 |

compound: CC1=C(SC2=C1C(=N[C@H](C3=NN=C(N32)C)CC(=O)N)C4=CC=C(C=C4)Cl)C; assay: as above
Method in brief: as §1

| Target | log2 fold change |
| --- | --- |
| RGS3 (UniProt P49796) | inactive: -0.022 |
| RBL2 (UniProt Q08999) | inactive: -0.059 |
| RHBDD1 (UniProt Q8TEB9) | inactive: 0.058 |
| REEP3 (UniProt Q6NUK4) | inactive: -0.019 |
| RFX2 (UniProt P48378) | inactive: 0.258 |
| RGS14 (UniProt O43566) | inactive: 0.04 |
| REXO5 (UniProt Q96IC2) | inactive: 0.032 |
| RASSF7 (UniProt Q02833) | inactive: 0.034 |
| RETREG2 (UniProt Q8NC44) | inactive: 0.016 |
| RBP4 (UniProt P02753) | inactive: -0.126 |
| RAPGEF6 isoform 4 (UniProt Q8TEU7) | inactive: -0.016 |
| RFX3 (UniProt P48380) | inactive: 0.182 |
| RBFOX2 isoform 8 (UniProt O43251) | inactive: 0.033 |
| REXO1 (UniProt Q8N1G1) | inactive: 0.055 |

compound: CC1=C2C(=CC=C1)N=C(N(C2=O)C3=CC=CC=C3C)CN4C=NC5=C(N=CN=C54)N; assay: as above
Method in brief: as §1

| Target | log2 fold change |
| --- | --- |
| RBM47 | inactive: 0.01 |
| RBMXL1 (UniProt Q96E39) | inactive: 0.071 |
| RBM38 (UniProt Q9H0Z9) | inactive: 0.07 |
| REST (UniProt Q13127) | inactive: -0.165 |
| RHBDD1 (UniProt Q8TEB9) | inactive: -0.117 |
| RELCH (UniProt Q9P260) | inactive: -0.129 |
| REEP3 (UniProt Q6NUK4) | inactive: 0.07 |
| RC3H2 (UniProt Q9HBD1) | inactive: 0.114 |
| RBM48 isoform 2 (UniProt Q5RL73) | inactive: -0.107 |
| REXO5 (UniProt Q96IC2) | inactive: 0.04 |
| RGCC (UniProt Q9H4X1) | inactive: 0.023 |
| RBMX2 (UniProt Q9Y388) | inactive: 0.012 |
| RETREG2 (UniProt Q8NC44) | inactive: 0.084 |
| RDH11 (UniProt Q8TC12) | inactive: 0.064 |
| RAPGEF6 isoform 4 (UniProt Q8TEU7) | inactive: 0.004 |
| RBM18 (UniProt Q96H35) | inactive: -0.026 |
| RBP5 (UniProt P82980) | inactive: -0.065 |

compound: Cc1sc2c(c1C)C(c1ccc(Cl)cc1)=N[C@@H](CC(=O)OC(C)(C)C)c1nnc(C)n1-2; assay: as above
Method in brief: as §1

| Target | log2 fold change |
| --- | --- |
| RBM47 | inactive: -0.008 |
| RAVER2 (UniProt Q9HCJ3) | inactive: 0.048 |
| RHD (UniProt Q02161) | inactive: -0.035 |
| RESF1 (UniProt Q9HCM1) | inactive: -0.011 |
| REX1BD (UniProt Q96EN9) | inactive: -0.046 |
| RBMXL1 (UniProt Q96E39) | inactive: -0.182 |
| RBL2 (UniProt Q08999) | inactive: -0.032 |
| RBM38 (UniProt Q9H0Z9) | inactive: 0.007 |
| RGL2 (UniProt O15211) | inactive: 0.009 |
| REST (UniProt Q13127) | inactive: 0.039 |
| RELCH (UniProt Q9P260) | inactive: 0.091 |
| RFX2 (UniProt P48378) | inactive: -0.012 |
| RC3H2 (UniProt Q9HBD1) | inactive: -0.012 |
| RGS14 (UniProt O43566) | inactive: -0.006 |
| RBM48 isoform 2 (UniProt Q5RL73) | inactive: 0.027 |
| REXO5 (UniProt Q96IC2) | inactive: 0.039 |
| RBMX2 (UniProt Q9Y388) | inactive: 0.105 |
| RDH11 (UniProt Q8TC12) | inactive: 0.069 |
| RAPGEF6 isoform 4 (UniProt Q8TEU7) | inactive: -0.001 |
| RFX3 (UniProt P48380) | inactive: -0.043 |
| RBFOX2 isoform 8 (UniProt O43251) | inactive: -0.04 |
| RBKS (UniProt Q9H477) | inactive: -0.367 |
| RBP5 (UniProt P82980) | inactive: 0.062 |

compound: c1ccc([C@@H]2C[C@H]2NC2CCNCC2)cc1; assay: as above
Method in brief: as §1

| Target | log2 fold change |
| --- | --- |
| RBM47 | inactive: -0.175 |
| RAVER2 (UniProt Q9HCJ3) | inactive: -0.147 |
| RHD (UniProt Q02161) | inactive: -0.067 |
| RGS3 (UniProt P49796) | inactive: 0.069 |
| REX1BD (UniProt Q96EN9) | inactive: 0.092 |
| RBL2 (UniProt Q08999) | inactive: 0.048 |
| RBM38 (UniProt Q9H0Z9) | inactive: -0.066 |
| RGL2 (UniProt O15211) | inactive: 0.024 |
| RHBDD1 (UniProt Q8TEB9) | inactive: 0.039 |
| REEP3 (UniProt Q6NUK4) | inactive: -0.061 |
| RBFA (UniProt Q8N0V3) | inactive: 0.015 |
| RFX2 (UniProt P48378) | inactive: 0.282 |
| RGS19 (UniProt P49795) | inactive: 0.082 |
| RC3H2 (UniProt Q9HBD1) | inactive: -0.075 |
| RGS14 (UniProt O43566) | inactive: -0.093 |
| RBM48 isoform 2 (UniProt Q5RL73) | inactive: -0.119 |
| REXO5 (UniProt Q96IC2) | inactive: 0.091 |

| Target | log2 fold change |
| --- | --- |
| RGCC (UniProt Q9H4X1) | inactive: 0.027 |
| RASSF7 (UniProt Q02833) | inactive: 0.075 |
| RETREG2 (UniProt Q8NC44) | inactive: 0.004 |
| RDH11 (UniProt Q8TC12) | inactive: -0.085 |
| RBP4 (UniProt P02753) | inactive: 0.007 |
| RASSF3 (UniProt Q86WH2) | inactive: -0.016 |
| RCBTB1 (UniProt Q8NDN9) | inactive: 0.307 |
| RAPGEF6 isoform 4 (UniProt Q8TEU7) | inactive: -0.03 |
| RBM18 (UniProt Q96H35) | inactive: -0.027 |
| RFX3 (UniProt P48380) | inactive: -0.013 |
| RBM45 (UniProt Q8IUH3) | inactive: -0.026 |
| RBBP4 isoform 4 (UniProt Q09028) | inactive: 0.221 |
| RBFOX2 isoform 8 (UniProt O43251) | inactive: 0.086 |
| REXO1 (UniProt Q8N1G1) | inactive: 0.328 |
| RBKS (UniProt Q9H477) | inactive: -0.06 |
| RBP5 (UniProt P82980) | inactive: 0.103 |
